From the supplement of paper PMC7661543
± gives the standard deviation of the averaged measurements. The effect of the compound repeats well; differences between the knockouts mostly do not.

Test system: MDA-MB-231
Assay: relative cell number vs DMSO control (72 h) (% of DMSO); higher = less growth inhibition (more cells)
Description: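 QMAP-Seq: a pool of 5 breast cancer cell lines (ZR-75-1, SKBR3, HCC-38, MDA-MB-231, BT-20), each carrying 12 doxycycline-inducible Cas9 sgRNA perturbations (11 knockouts plus non-targeting sgNT), was treated with compounds for 72 h at four 10-fold doses (10 nM-10 uM or 1 nM-1 uM range). Barcodes were amplified and sequenced, and cell number was interpolated from 293T spike-in standard curves. The result is expressed as % of the median of DMSO wells. Two biological replicates.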

Cc1ncc([N+](=O)[O-])n1CC(O)CCl (stereo not drawn) [Ornidazole]
Conditions | relative cell number
sgRNA knockout: sgATF3, 10 nM | 85.5 ± 15
sgRNA knockout: sgATF3, 100 nM | 103 ± 8.2
sgRNA knockout: sgATF3, 1000 nM | 103 ± 6.3
sgRNA knockout: sgATF3, 10000 nM | 88.4 ± 9.7
sgRNA knockout: sgATF4, 10 nM | 119 ± 43
sgRNA knockout: sgATF4, 100 nM | 90.9 ± 23
sgRNA knockout: sgATF4, 1000 nM | 113 ± 3.6
sgRNA knockout: sgATF4, 10000 nM | 123 ± 17
sgRNA knockout: sgATF6, 10 nM | 84.1 ± 13
sgRNA knockout: sgATF6, 100 nM | 88.7 ± 10
sgRNA knockout: sgATF6, 1000 nM | 102 ± 13
sgRNA knockout: sgATF6, 10000 nM | 118 ± 20
sgRNA knockout: sgATG7, 10 nM | 87.9 ± 19
sgRNA knockout: sgATG7, 100 nM | 116 ± 35
sgRNA knockout: sgATG7, 1000 nM | 114 ± 16
sgRNA knockout: sgATG7, 10000 nM | 92.6 ± 16
sgRNA knockout: sgERN1, 10 nM | 74.5 ± 6.2
sgRNA knockout: sgERN1, 100 nM | 102 ± 20
sgRNA knockout: sgERN1, 1000 nM | 94.4 ± 20
sgRNA knockout: sgERN1, 10000 nM | 96.4 ± 20
sgRNA knockout: sgHSF1, 10 nM | 99.3 ± 21
sgRNA knockout: sgHSF1, 100 nM | 104 ± 26
sgRNA knockout: sgHSF1, 1000 nM | 99.3 ± 20
sgRNA knockout: sgHSF1, 10000 nM | 88.2 ± 3.7
sgRNA knockout: sgHSF2, 10 nM | 97 ± 24
sgRNA knockout: sgHSF2, 100 nM | 103 ± 46
sgRNA knockout: sgHSF2, 1000 nM | 95.4 ± 7.8
sgRNA knockout: sgHSF2, 10000 nM | 113 ± 3.1
sgRNA knockout: sgKEAP1, 10 nM | 89.8 ± 14
sgRNA knockout: sgKEAP1, 100 nM | 114 ± 19
sgRNA knockout: sgKEAP1, 1000 nM | 119 ± 17
sgRNA knockout: sgKEAP1, 10000 nM | 111 ± 15
sgRNA knockout: sgNFE2L2, 10 nM | 73.8 ± 18
sgRNA knockout: sgNFE2L2, 100 nM | 103 ± 22
sgRNA knockout: sgNFE2L2, 1000 nM | 99.8 ± 1.3
sgRNA knockout: sgNFE2L2, 10000 nM | 102.1 ± 0.22
sgRNA knockout: sgSLC35F2, 10 nM | 88.9 ± 9.9
sgRNA knockout: sgSLC35F2, 100 nM | 89.86 ± 0.56
sgRNA knockout: sgSLC35F2, 1000 nM | 111 ± 12
sgRNA knockout: sgSLC35F2, 10000 nM | 81.4 ± 4.5
sgRNA knockout: sgXBP1, 10 nM | 110 ± 3.1
sgRNA knockout: sgXBP1, 100 nM | 97.5 ± 46
sgRNA knockout: sgXBP1, 1000 nM | 96.7 ± 8.6
sgRNA knockout: sgXBP1, 10000 nM | 98.5 ± 25

O=P1(NCCCl)OCCCN1CCCl (stereo not drawn) [Ifosfamide]
Conditions | relative cell number
sgRNA knockout: sgATF3, 10 nM | 88.3 ± 38
sgRNA knockout: sgATF3, 100 nM | 91.7 ± 5.1
sgRNA knockout: sgATF3, 1000 nM | 108 ± 7.4
sgRNA knockout: sgATF3, 10000 nM | 87.2 ± 20
sgRNA knockout: sgATF4, 10 nM | 111.2 ± 1
sgRNA knockout: sgATF4, 100 nM | 84.5 ± 13
sgRNA knockout: sgATF4, 1000 nM | 116 ± 13
sgRNA knockout: sgATF4, 10000 nM | 120 ± 32
sgRNA knockout: sgATF6, 10 nM | 99 ± 24
sgRNA knockout: sgATF6, 100 nM | 94.5 ± 11
sgRNA knockout: sgATF6, 1000 nM | 123 ± 23
sgRNA knockout: sgATF6, 10000 nM | 104 ± 9.6
sgRNA knockout: sgATG7, 10 nM | 86.5 ± 6.1
sgRNA knockout: sgATG7, 100 nM | 84.7 ± 5.1
sgRNA knockout: sgATG7, 1000 nM | 81.4 ± 13
sgRNA knockout: sgATG7, 10000 nM | 102 ± 19
sgRNA knockout: sgERN1, 10 nM | 91.5 ± 37
sgRNA knockout: sgERN1, 100 nM | 78.8 ± 3.2
sgRNA knockout: sgERN1, 1000 nM | 119 ± 26
sgRNA knockout: sgERN1, 10000 nM | 111 ± 42
sgRNA knockout: sgHSF1, 10 nM | 94.5 ± 32
sgRNA knockout: sgHSF1, 100 nM | 84.4 ± 6.2
sgRNA knockout: sgHSF1, 1000 nM | 94.4 ± 12
sgRNA knockout: sgHSF1, 10000 nM | 86.7 ± 11
sgRNA knockout: sgHSF2, 10 nM | 103 ± 6.8
sgRNA knockout: sgHSF2, 100 nM | 94.8 ± 18
sgRNA knockout: sgHSF2, 1000 nM | 95.6 ± 15
sgRNA knockout: sgHSF2, 10000 nM | 81.4 ± 10
sgRNA knockout: sgKEAP1, 10 nM | 145 ± 11
sgRNA knockout: sgKEAP1, 100 nM | 106 ± 13
sgRNA knockout: sgKEAP1, 1000 nM | 87.9 ± 4.4
sgRNA knockout: sgKEAP1, 10000 nM | 88.4 ± 4.4
sgRNA knockout: sgNFE2L2, 10 nM | 94.4 ± 8.6
sgRNA knockout: sgNFE2L2, 100 nM | 97.7 ± 22
sgRNA knockout: sgNFE2L2, 1000 nM | 90.3 ± 30
sgRNA knockout: sgNFE2L2, 10000 nM | 94.4 ± 3.2
sgRNA knockout: sgSLC35F2, 10 nM | 88.6 ± 5
sgRNA knockout: sgSLC35F2, 100 nM | 82 ± 28
sgRNA knockout: sgSLC35F2, 1000 nM | 95.2 ± 29
sgRNA knockout: sgSLC35F2, 10000 nM | 93.2 ± 20
sgRNA knockout: sgXBP1, 10 nM | 91 ± 0.21
sgRNA knockout: sgXBP1, 100 nM | 91.9 ± 13
sgRNA knockout: sgXBP1, 1000 nM | 114 ± 13
sgRNA knockout: sgXBP1, 10000 nM | 94.4 ± 21
